Measurements from “University of Dundee, Small-Polar-MMV Screening Library” (2021), ChEMBL document CHEMBL3988442.

The chains behind the UniProt entries cited, without tags or fusion partners.
UniProt P9WNZ1, whole entry: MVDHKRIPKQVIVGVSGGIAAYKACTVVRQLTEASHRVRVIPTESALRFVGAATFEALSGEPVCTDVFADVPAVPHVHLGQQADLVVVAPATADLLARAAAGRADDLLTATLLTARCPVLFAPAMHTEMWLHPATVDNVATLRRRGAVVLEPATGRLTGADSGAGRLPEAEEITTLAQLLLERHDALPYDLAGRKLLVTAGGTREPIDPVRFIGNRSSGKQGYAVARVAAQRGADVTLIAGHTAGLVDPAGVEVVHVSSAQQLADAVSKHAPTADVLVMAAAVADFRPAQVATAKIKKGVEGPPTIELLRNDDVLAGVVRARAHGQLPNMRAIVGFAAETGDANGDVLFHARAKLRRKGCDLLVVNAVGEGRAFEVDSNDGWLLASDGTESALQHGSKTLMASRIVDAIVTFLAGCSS

Results are given as percent effect. The record does not define 0% and 100%; most values in the screen are far below 50% and negative numbers occur (in some assays of this library far below -100). The compounds are a random part of those screened. Two or more numbers in one place are separate tests of the same structure; such repeats can differ widely. A dash means the value is not listed here; it may have been measured.

CoaBC: 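Enzyme assay of CoaBC with a phosphate dye (Biomol Green) read at 650 nm. Target: Coenzyme A biosynthesis protein CoaBC, Mycobacterium tuberculosis (UniProt P9WNZ1). Concentration: 30 µM. Higher reads as stronger inhibition, judged from the few compounds that gave an IC50. Most strong results did not repeat in a second test. About 67,000 compounds were tested under these conditions; 0.06% (about 40) showed 50% or more at least once.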
Leishmania in macrophages: 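Cell assay of Leishmania donovani living inside macrophages; the read-out is not stated. Tested at 30 µM. The record gives no direction; compounds that gave an IC50 in retests scored well above the rest, so higher reads as stronger inhibition. Of about 69,000 compounds tested this way, about 1,000 (1.5%) reached 50% or more in at least one test.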

For CCC(CO)(CO)NC(=O)C1CCC(=O)N(CCc2ccccc2)C1 (stereo unspecified) the result was CoaBC: -0.7653%; Leishmania in macrophages: -1.888%. O=C(O)C(F)(F)F.[H][C@@]12CCN(c3cccnc3)C[C@]1([H])CN(C(=O)CC1CC1)C2 gave Leishmania in macrophages: 13.21%. COC(=O)[C@H](C)NC(=O)Cn1ccc2ccc(F)cc21 gave CoaBC: 0.6904%; Leishmania in macrophages: 8.459%. With O=C(Cc1ccsc1)N1CCN(CCOc2ccccc2)CC1 the screen gave CoaBC: 1.629%; Leishmania in macrophages: -7.914%. For c1nc2c(c(N3CCOC(Cn4cncn4)C3)n1)CCC2 (stereo unspecified) the result was CoaBC: 5.161%; Leishmania in macrophages: 30.4%.

For Cc1cnc(N2CCn3c(CN4CCOCC4)nnc3C2)nc1.O=C(O)C(F)(F)F the result was Leishmania in macrophages: 30.81%. Result for O=C(NCC1CC1)c1nc(COc2ccc3c(c2)OCO3)no1 was CoaBC: 2.557%; Leishmania in macrophages: 2.361%. CC(C)(C)CCCC(=O)NS(=O)(=O)CC1CC1 gave CoaBC: 0.7335%; Leishmania in macrophages: -6.11%. With Cc1ccc(CN2CC[C@@H](N3CCOCC3)[C@@H]2Cc2cccnc2)o1 the screen gave CoaBC: 0.9677%. Result for CC(=O)Nc1nc(C(=O)N2CCCC(n3ccnc3)C2)cs1 (stereo unspecified) was CoaBC: 3.506%; Leishmania in macrophages: -4.696%.

O=C(c1ccsc1)N1CCc2c(CNc3nccs3)n[nH]c2C1 gave CoaBC: 4.516%; Leishmania in macrophages: 12.21%. CC1c2ncc(Cn3cccn3)n2CCN1c1ncccn1 (stereo unspecified) gave CoaBC: 0.6188%. For CSc1ccc(NC(=O)NCc2nncn2C2CC2)cc1F the result was CoaBC: 0.6508%; Leishmania in macrophages: 39.32%. For CCC(C)N1CCC(Oc2ccc(C(=O)NCCN(C)C)cc2Cl)CC1 (stereo unspecified) the result was CoaBC: -42.06%; Leishmania in macrophages: 29.88%. For CN(c1ccc(C(N)=O)nn1)C1CCC1 the result was CoaBC: 4.225%; Leishmania in macrophages: 1.683%.

CCN(Cc1ccc(O)c(C(=O)O)c1)CC1CCCO1 (stereo unspecified) read CoaBC: 5.383%; Leishmania in macrophages: -14.22%. Result for Cc1nc(-c2ccc(Cl)s2)sc1C(=O)O was CoaBC: 2.215%; Leishmania in macrophages: 36.18%. Result for COc1cccc(OCCN2CC[C@@](O)(C3CCOCC3)[C@H](C)C2)c1 was CoaBC: 4.04%; Leishmania in macrophages: 45.53%. For Cc1nnc2n1CCN(C(=O)c1cnc(C3CC3)s1)C2 the result was CoaBC: 3.507%; Leishmania in macrophages: 20.77%. O=C1CC(c2ccc3c(c2)OCO3)c2snc(C(=O)O)c2N1 (stereo unspecified) read CoaBC: 7.39%; Leishmania in macrophages: 37.2%.

Result for O=C(Cc1cccs1)N1Cc2nc(COCC3CC3)oc2C1 was CoaBC: 0.7426%; Leishmania in macrophages: 3.581%. Result for CCc1cc(-c2cc[nH]n2)nc(N2CCCC2)n1 was CoaBC: -3.947%; Leishmania in macrophages: -30.42%. Result for CSCCC(CO)NC(=O)c1sc(-c2ccccc2Cl)nc1C (stereo unspecified) was CoaBC: 0.4038%; Leishmania in macrophages: -6.303%. CCOC(=O)CNC(=O)N1CCOC(CCc2ccccc2)C1 (stereo unspecified) read CoaBC: -1.22%; Leishmania in macrophages: -24.99%. Result for COCCn1cc2c(n1)C(CNCc1cccc(OC)c1)OCC2 (stereo unspecified) was CoaBC: 5.679%.

N#Cc1ncn(CCC(=O)Nc2ccccc2F)n1 gave CoaBC: 5.977%; Leishmania in macrophages: 30.77%. Result for CCCOCCN1CCN(c2ncnc3[nH]ccc23)CC1 was CoaBC: 0%; Leishmania in macrophages: -30.88%. Result for Cn1ncc2c(=O)[nH]c(CN3CCc4ccccc4C3)nc21 was CoaBC: 6.122%; Leishmania in macrophages: 33.87%. With Cc1cc(C(=O)NCc2cccnc2N2CCc3ccccc3C2)[nH]n1 the screen gave CoaBC: 4.303%; Leishmania in macrophages: 11.13%. Cc1cccc(CN2CCC(c3nccn3CC(N)=O)CC2)n1 read CoaBC: 4.512%; Leishmania in macrophages: -29.71%.

Result for O=C(O)CC(O)(CC(=O)O)C(=O)O.[H][C@@]12CC[C@@](O)(c3ccc(C)cn3)[C@]1([H])CN(Cc1cnc(OC)nc1)C2 was Leishmania in macrophages: 8.035% & 27.07%. For CC(O)(CCc1ccccc1)CNC(=O)c1cccs1 (stereo unspecified) the result was CoaBC: 7.822%; Leishmania in macrophages: 2.725% & -12.88%. Result for COc1ccc(F)cc1C[S+]([O-])CC(=O)NCC(C)C (stereo unspecified) was CoaBC: -2.269%; Leishmania in macrophages: -16.5%. O=C(O)C(F)(F)F.O=C(O)C(F)(F)F.[H][C@@]12COC[C@H](C(=O)Nc3cccnc3)[C@]1([H])CN(Cc1cnn(C)c1)C2 gave Leishmania in macrophages: 5.919%. COCCN(Cc1ccccn1)C(=O)CC1OCCc2sccc21 (stereo unspecified) read CoaBC: -11.6%; Leishmania in macrophages: 0.5809%.

With CC(=O)c1ccc(CNC(=O)c2cc(C)nn2C)nc1C the screen gave CoaBC: 0%; Leishmania in macrophages: 36.34%. Result for CCC(c1ccccc1)S(=O)(=O)CCO (stereo unspecified) was CoaBC: -0.1988%; Leishmania in macrophages: 0.807%.

Some entries from above, unchanged:

SMILES	CoaBC	Leishmania in macrophages
N#Cc1ncn(CCC(=O)Nc2ccccc2F)n1	5.977%	30.77%
Cc1nc(-c2ccc(Cl)s2)sc1C(=O)O	2.215%	36.18%
COCCn1cc2c(n1)C(CNCc1cccc(OC)c1)OCC2 (stereo unspecified)	5.679%	-
CC(=O)c1ccc(CNC(=O)c2cc(C)nn2C)nc1C	0%	36.34%